# Experimental data from PubChem BioAssay AID1259415 (National Center for Advancing Translational Sciences (NCATS), 2018).
# In all, about 410,000 compounds went through this assay and about 18,000 (4.4%) were called active. This list was built around the results that the source calls inconclusive (neither active nor inactive); the mix of calls is not that of the screen. No stated cut-off is given here; in the data, active means activity change below about -60%; inconclusive means no clear call, values can overlap the other calls; inactive means above about -39%.
# Assay: qHTS Assay for inhibitors of the human cytomegalovirus (HCMV)
# Conditions: HFF cells, HCMV-luciferase reporter, 72 h; at 57.5 µM; active compounds read low
# Summary of the method: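 Steps: HFFs plated, 16 h 37C; compounds added; HCMV-luciferase added to MOI 1 PFU/cell; 72 h 37C; OneGlo reagent, 5 min room temperature; luminescence read, normalized to controls.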
# On the % scale 0 is the no-effect control and ±100 the full control effect.
row,Compound,"activity change, negative = inhibition"
1,CN(CC(=O)N1CCCCC1)S(=O)(=O)c1cccc2nsnc12,inactive: -25%
2,CC1CN(C(=O)COc2ccc3c(-c4ccccc4)cc(=O)oc3c2)CC(C)O1 (stereo not drawn),inconclusive: -49.2%
3,COc1ccc(Cl)cc1C1=CC(=O)C[C@H](c2ccc(F)cc2)C1,inconclusive: -45.7%
4,Cc1ccc(C)c(Cn2nnc3c(=O)[nH]c(C4CCN(S(=O)(=O)c5ccc(S(=O)(=O)N(C)C)cc5)CC4)nc32)c1,inactive: -33.1%
5,Cc1ccc(C)c(NC(=O)Cn2cc(C(=O)c3ccco3)c3ccccc32)c1,inactive: -33.8%
6,CCCCn1c(N)c(N(CC(C)C)C(=O)c2cccs2)c(=O)[nH]c1=O,inactive: -0.912%
7,Cc1ccc(S(=O)(=O)N2CCC(=O)N(C(COCc3ccc(Cl)cc3)Cc3ccccc3)CC2)cc1 (stereo not drawn),inactive: -32.8%
8,Cc1cc(=O)n2c(-c3ccc(Cl)cc3)csc2n1,inconclusive: -54.4%
9,Cn1c(N)c(C(=O)CSc2ncn[nH]2)c(=O)n(C)c1=O,inconclusive: -47.8%
10,CC(=O)c1ccc2noc(-c3cccc(F)c3)c2c1,inconclusive: -40.2%
11,Cc1ccc(NC(=O)N2Cc3ccccc3CC2C(=O)NC(C)(C)C)cc1 (stereo not drawn),inconclusive: -45.1%
12,CCOC(=O)C1=C(c2ccccc2)O/C(=C(/C(=O)OC)C(F)(F)F)S1,inactive: 34.3%
13,COc1ccccc1-c1nc2c(c(SCC(=O)Nc3ccc(C)c(C)c3)n1)Cc1c(CO)cnc(C)c1O2,active: -76.1%
14,CCOC(=O)c1ccc(NC(=O)CN2CCN(Cc3ccccc3)CC2)cc1,inconclusive: -44.2%
15,ONC(=Nc1ccc(Cl)cc1)c1ccccc1,inconclusive: -41.9%
16,CC(NS(=O)(=O)c1ccc2ccccc2c1)c1ccccn1 (stereo not drawn),inactive: -14.9%
17,CCNC(=O)c1ccc(=O)n(Cc2ccc(Cl)cc2Cl)c1,inconclusive: -50.8%
18,N=c1c2c(-c3ccccc3)c(-c3ccccc3)n(Cc3ccco3)c2ncn1CCCn1ccnc1,active: -97.5%
19,Cc1cccc(OCCCC(=O)N2CCCc3ccccc32)c1C,inconclusive: -42.3%
20,CCNC(C(=O)c1c[nH]c2c(CC)cccc12)c1ccccc1 (stereo not drawn),inconclusive: -50.3%
21,COc1cccc(Cn2c(CNC(=O)Cc3cccc(C)c3)nc3cccnc32)c1,inconclusive: -57.9%
22,Cc1cc(=O)[nH]c(SCC(=O)Nc2ccnc3ccccc23)n1,inconclusive: -55.2%
23,Cc1cccc(NC(=O)CN2CCN(C(=O)C3CCN(C(=O)/C=C/c4ccccc4)CC3)CC2)c1C,inconclusive: -43.9%

# Reformatted bar-delimited: 2 of the compounds above
row | Compound | activity change, negative = inhibition
3 | COc1ccc(Cl)cc1C1=CC(=O)C[C@H](c2ccc(F)cc2)C1 | inconclusive: -45.7%
16 | CC(NS(=O)(=O)c1ccc2ccccc2c1)c1ccccn1 (stereo not drawn) | inactive: -14.9%
